Measurements from PubChem BioAssay AID1347423 (Functional Genomics Laboratory (NCATS/FGL), 2020).
About 210 (0.4%) of roughly 52,000 sequences were called active.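 The calls were made as follows: active = gene whose silencing raises cell survival under the drug, median off-target-corrected z-score across its silencing RNAs 2 or more; inactive = the rest.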 This is one part of the list.

Assay: Resistance to Poly (ADP-Ribose) Polymerase inhibitor: Gene Identification via Genome-wide siRNA Screen
Settings: mouse BRCA2 R2336H ES cells, olaparib, CellTiter-Glo viability; active compounds read high
How it was run: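 Genome-wide siRNA screen (3 siRNAs/gene, 20 nM) in mouse ES cells carrying hypomorphic BRCA2 R2336H; olaparib 500 nM added 48 h post-transfection, CellTiter-Glo viability 72 h later. Normalized to plate-median negative control; MAD z-scores, gene median, seed-adjusted.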

Row | Sequence | z-score
1 | GCGGACAGUUUGGCACAAUTT against Becn1 | inactive: -0.17
2 | CCUCUGUGCUCGUCUUUUUTT against Arhgap6 | inactive: 0.215
3 | GGGCGACAUCUUUAGCAAATT against Sh3bp4 | inactive: 0.942
4 | GGUCCUGACUGGAUACCUGTT against Ece1 | inactive: -0.29
5 | CCAUUCAUUUAACCUUUCATT against Thea | inactive: 0.691
6 | GCCAUGAAUCCUAUCCGCATT against Ephb3 | inactive: -0.724
7 | CGUGCUUAUUUUCAAGAAGTT against 1810019J16Rik | inactive: 0.743
8 | CCAGGGACCCGUAAUUUAUTT against Fn3k | inactive: 1.16
9 | GCUGAUGGAGAGUUAUUUGTT against Rcbtb1 | inactive: -0.811
10 | GGCUGAGGAGAUAACCAUATT against 5330401P04Rik | inactive: -0.083
11 | GGCGAAUGGAAGAUAAUGCTT against Stxbp3 | inactive: 2.61
12 | GGACUAAGUAUAGAAUUCATT against Gdnf | inactive: 0.681
13 | CGAUGAUGAACGAUGGACATT against Mmp3 | inactive: 0.175
14 | GCAGUAUUUUGCUAUCAUATT against 4921511C16 | inactive: 0.0281
15 | GGAGUUUUUACUAUCAAAGTT against Gm527 | inactive: 0.607
16 | GGAGGAGCUGAAUGAAAACTT against 2810468K05Rik | inactive: -0.164
17 | GCUAUAAGAGAGCUAGACATT against 2610040E16Rik | inactive: -0.737
18 | GGUUUUGUUGUGAGUGUUUTT against 1500010M16Rik | inactive: 1.88
19 | GGUUGUUGGAAAAGAUGAATT against Ids | inactive: -0.257
20 | GCUGUGAAUUCCAAAUGCGTT against Myh4 | inactive: 0.483
21 | GCUGGCUUCUAUACUUCCCTT against DXImx49e | inactive: -0.505
22 | GGAGAAGACACAGAGAACCTT against BC046386 | inactive: 2.29
23 | CCUUCUUGACUAUUCGUCUTT against Olfr1509 | inactive: -0.0964
24 | GGGAUUGAACCCUUGUUUUTT against BC049762 | inactive: 1.18
25 | GGUGCUGAACAUCUAUGGGTT against Myo1d | inactive: 2.28
26 | GCCAUAGAAGUAGAAGUAGTT against Rbmx2 | inactive: -0.672
27 | GCUCACUAAAUCCUUGAAATT against Trim31 | inactive: -0.603
28 | GGCUAUUAAAGAUUUGAUGTT against Myef2 | inactive: -0.33
29 | GGACCACAGAAGUUCUCAUTT against Pira2 | inactive: 1.13

Fetched one by one from the list above:
Row | Sequence | z-score
22 | GGAGAAGACACAGAGAACCTT against BC046386 | inactive: 2.29
14 | GCAGUAUUUUGCUAUCAUATT against 4921511C16 | inactive: 0.0281
